# Results: the supplement of paper PMC8256030
# Where “and” joins values, the source holds several entries; their conditions need not be identical. Equal values may be shown once. Some of the results follow. Repeats in this data set agree poorly, so a single value says little.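 HEK293T cells were given each compound shortly before transfection with a reporter in which red mCherry is followed by the SARS-CoV-2 frameshift element and then GFP in the −1 frame, so GFP appears only after frameshifting.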
# Test system: SARS-CoV-2 -1 PRF reporter mCherry-FSE-GFP(-1)
# Test: percent effect, decrease of GFP/mCherry ratio (-1 PRF reporter) relative to controls; higher = stronger frameshift inhibition
# Conditions: 10 µM; 24 h; HEK293T
row,Structure (SMILES),percent effect
1,C=CCCCCCCCCC(=O)O,-1.99%
2,Cc1cccc(OCC(O)CNC(C)C)c1 (stereo unspecified) [toliprolol],-14.1%
3,CC(=O)CC(c1ccccc1)c1c(O)c2ccccc2oc1=O (stereo unspecified) [warfarin],-3.5%
4,O=c1nc2cccccc-2n1Cc1ccccc1 [benhepazone],-2.39%
5,C[C@]12C=CC(=O)C=C1CC[C@@H]1[C@@H]2[C@@H](O)C[C@@]2(C)[C@H]1CC[C@]2(O)C(=O)CO [prednisolone],-6.87% and 0.104% and -5.13%
6,CCOc1ccccc1C(N)=O [ethenzamide],3.83%
